{"source": "PubChem BioAssay AID504774 (Drosophila RNAi Screening Center, 2011)", "purpose": "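Fly genes whose loss alters survival after alkylation damage to DNA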 (primary screen)", "system": "Drosophila Kc167 cells", "reagents": "long dsRNA against Drosophila genes, about 0.25 µg dsRNA per well", "duration": "about 6 days: 3 days knock-down, then 3 days with or without MMS", "challenge": "methyl methanesulphonate 0.004% (w/v) for 3 days after knock-down", "read-out": "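ATP-dependent luminescence as a measure of live cells in MMS-exposed wells, quantile normalised within each plate, with replicate values also given as a mean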", "direction": "mean viability with MMS and viability with MMS: higher = more surviving cells after MMS", "note": "In all, the deposit lists about 23,000 reagents; shown is a random part of those that have a named target and a result. 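Values are quantile-normalised luminescence on an arbitrary scale; higher means more cells surviving MMS.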 A plus sign joins genes that one reagent is predicted to hit. Not all columns of the deposit are shown."}
{"gene knocked down": "CG31098 (GeneID 43057)", "amplicon": "DRSC14259", "mean viability with MMS": 3.46e6, "viability with MMS, replicate 1": 3.88e6}
{"gene knocked down": "CG5177 (GeneID 34017)", "amplicon": "DRSC02824", "mean viability with MMS": 3.58e6, "viability with MMS, replicate 1": 4.08e6}
{"gene knocked down": "Ugt49B1 (GeneID 37420)", "amplicon": "DRSC04461", "mean viability with MMS": 3.50e6, "viability with MMS, replicate 1": 4.09e6}
{"gene knocked down": "Ugt37A3 (GeneID 41574)", "amplicon": "DRSC15937", "mean viability with MMS": 3.44e6, "viability with MMS, replicate 1": 3.94e6}
{"gene knocked down": "CG34268 (GeneID 5740141)", "amplicon": "DRSC07874", "mean viability with MMS": 3.58e6, "viability with MMS, replicate 1": 4.00e6}
{"gene knocked down": "Cp38 (GeneID 31788)", "amplicon": "DRSC18453", "mean viability with MMS": 3.47e6, "viability with MMS, replicate 1": 3.91e6}
{"gene knocked down": "CG15534 (GeneID 43613)", "amplicon": "DRSC15070", "mean viability with MMS": 3.50e6, "viability with MMS, replicate 1": 4.01e6}
{"gene knocked down": "r + CG13012", "amplicon": "DRSC19531", "mean viability with MMS": 3.61e6, "viability with MMS, replicate 1": 4.11e6}
{"gene knocked down": "ebi (GeneID 33212)", "amplicon": "DRSC00816", "mean viability with MMS": 3.70e6, "viability with MMS, replicate 1": 4.26e6}
{"gene knocked down": "Gpdh3 (GeneID 42624)", "amplicon": "DRSC13561", "mean viability with MMS": 3.59e6, "viability with MMS, replicate 1": 4.01e6}
{"gene knocked down": "Gpdh3 (GeneID 42624)", "amplicon": "DRSC15325", "mean viability with MMS": 3.49e6, "viability with MMS, replicate 1": 3.86e6}
{"gene knocked down": "dao (GeneID 34891)", "amplicon": "DRSC01960", "mean viability with MMS": 3.64e6, "viability with MMS, replicate 1": 4.15e6}
{"gene knocked down": "CG32655 (GeneID 318143)", "amplicon": "DRSC18925", "mean viability with MMS": 3.44e6, "viability with MMS, replicate 1": 3.89e6}
{"gene knocked down": "CG14258 (GeneID 43260)", "amplicon": "DRSC14753", "mean viability with MMS": 3.71e6, "viability with MMS, replicate 1": 4.25e6}
{"gene knocked down": "Nnk (GeneID 42143)", "amplicon": "DRSC15274", "mean viability with MMS": 3.55e6, "viability with MMS, replicate 1": 4.10e6}
{"gene knocked down": "PolE1 (GeneID 42758)", "amplicon": "DRSC16112", "mean viability with MMS": 3.36e6, "viability with MMS, replicate 1": 3.73e6}
{"gene knocked down": "CG15831 (retired record) (GeneID 3355006)", "amplicon": "DRSC20816", "mean viability with MMS": 3.56e6, "viability with MMS, replicate 1": 4.01e6}
{"gene knocked down": "CG18549 (GeneID 41538)", "amplicon": "DRSC15347", "mean viability with MMS": 3.47e6, "viability with MMS, replicate 1": 3.92e6}
{"gene knocked down": "GstE13 (GeneID 35928)", "amplicon": "DRSC06083", "mean viability with MMS": 3.39e6, "viability with MMS, replicate 1": 3.73e6}
{"gene knocked down": "Gdh (GeneID 42832)", "amplicon": "DRSC16679", "mean viability with MMS": 3.55e6, "viability with MMS, replicate 1": 3.96e6}
{"gene knocked down": "betaNACtes1 (GeneID 32360)", "amplicon": "DRSC19534", "mean viability with MMS": 3.68e6, "viability with MMS, replicate 1": 4.08e6}
{"gene knocked down": "Dip-C (GeneID 47769)", "amplicon": "DRSC15855", "mean viability with MMS": 3.78e6, "viability with MMS, replicate 1": 4.34e6}
{"gene knocked down": "CG5500 (GeneID 43233)", "amplicon": "DRSC15820", "mean viability with MMS": 3.69e6, "viability with MMS, replicate 1": 4.25e6}
{"gene knocked down": "CG12817 (GeneID 41250)", "amplicon": "DRSC14555", "mean viability with MMS": 3.66e6, "viability with MMS, replicate 1": 4.09e6}
{"gene knocked down": "CG42319 (GeneID 36473)", "amplicon": "DRSC06645", "mean viability with MMS": 3.56e6, "viability with MMS, replicate 1": 4.13e6}
{"gene knocked down": "CG42319 (GeneID 36473)", "amplicon": "DRSC06646", "mean viability with MMS": 3.64e6, "viability with MMS, replicate 1": 4.37e6}
{"gene knocked down": "CG42319 (GeneID 36473)", "amplicon": "DRSC22426", "mean viability with MMS": 3.61e6, "viability with MMS, replicate 1": 4.10e6}
{"gene knocked down": "Sec6 (GeneID 37142)", "amplicon": "DRSC06932", "mean viability with MMS": 3.30e6, "viability with MMS, replicate 1": 3.78e6}
{"gene knocked down": "CG18368 (GeneID 36519)", "amplicon": "DRSC06731", "mean viability with MMS": 3.72e6, "viability with MMS, replicate 1": 4.32e6}
{"gene knocked down": "KdelR (GeneID 34427)", "amplicon": "DRSC03353", "mean viability with MMS": 3.32e6, "viability with MMS, replicate 1": 3.62e6}
{"gene knocked down": "chic (GeneID 33834)", "amplicon": "DRSC03507", "mean viability with MMS": 3.62e6, "viability with MMS, replicate 1": 4.14e6}
{"gene knocked down": "JIL-1 (GeneID 39241)", "amplicon": "DRSC11200", "mean viability with MMS": 3.84e6, "viability with MMS, replicate 1": 4.45e6}
{"gene knocked down": "CG15445 (GeneID 33094)", "amplicon": "DRSC20517", "mean viability with MMS": 3.32e6, "viability with MMS, replicate 1": 3.75e6}
{"gene knocked down": "beat-IIb (GeneID 42082)", "amplicon": "DRSC13219", "mean viability with MMS": 3.31e6, "viability with MMS, replicate 1": 3.69e6}
{"gene knocked down": "beat-IIb (GeneID 42082)", "amplicon": "DRSC14816", "mean viability with MMS": 3.55e6, "viability with MMS, replicate 1": 3.93e6}
{"gene knocked down": "beat-IIb (GeneID 42082)", "amplicon": "DRSC15546", "mean viability with MMS": 3.46e6, "viability with MMS, replicate 1": 3.83e6}
